Data as given in PubChem BioAssay AID720505 (Drosophila RNAi Screening Center, 2013)
In all, the deposit lists about 20,000 reagents; shown is an unselected part of those that have a named target and a result. In the full data, about 2,100 (10%) were called active. 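Raw plate signals without normalisation; calls rest on control-based scores that were not deposited; replicate 2 separates called from uncalled poorly.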 Reagents against one gene are numbered here. A plus sign joins genes that one reagent is predicted to hit. The record does not give: the amount of reagent, the time to read-out.

Test: 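Fly regulators or components of the CRAC channel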 (primary screen)
System: Drosophila S2R+ cells
Reagent: long dsRNA against Drosophila genes
Conditions: thapsigargin (2 µM) in calcium-free buffer to empty internal stores, then 2 mM calcium added back
Detection: 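Stores emptied by 2 µM thapsigargin without calcium, then 2 mM calcium re-added; fluo-4 fluorescence followed by FLIPR in 384-well plates, per-well averaged endpoint, raw; two screen passes, some wells retested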
Scale: calcium signal and retest calcium signal: higher = more calcium entry after store depletion
Hit rule: 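About 1500 genes called as lowering calcium entry, by varying amounts, judged against per-plate control wells with STIM1 as positive and Rho1 as negative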
Calls: active = called as lowering calcium entry; inactive = not called

Target gene,dsRNA no.,"calcium signal, replicate 1","calcium signal, replicate 2","retest calcium signal, replicate 1","retest calcium signal, replicate 2",Call
Art2,1,105,115,,,inactive
bcd + CR14578,1,116,119,,,inactive
ohgt,1,97.1,78.2,,,inactive
Syx6,1,128,138,,,inactive
Abcd1,1,121,119,,,inactive
Tnpo-SR,1,88.4,172,,,inactive
GstE1,1,186,146,,,inactive
CG1637,1,103,83,,,inactive
CG1637,2,70.5,118,,,active
ash2,1,211,206,,,inactive
CG17239,1,160,162,,,inactive
sca,1,96.4,176,,,inactive
CG32437,1,67.9,137,,,active
CG32437,2,78.5,149,,,inactive
sphinx1,1,90.3,59.8,,,inactive
CG3368,1,114,119,,,inactive
spdi,1,132,147,,,inactive
spdi,2,68,145,,,inactive
nsr,1,158,90,,,inactive
nsr,2,81.2,127,,,inactive
CG3568,1,177,120,,,inactive
Ets65A,1,110,55,,,inactive
Ets65A,2,92.9,140,,,inactive
Ets65A,3,87.6,116,,,inactive
CG30403,1,119,124,172,134,inactive
Unc50,1,149,180,,,inactive
Naa30B,1,109,96.1,,,inactive
CG13046,1,100,149,,,inactive
CG10064,1,88.5,80.5,,,inactive
Noc1,1,111,103,,,inactive
Got1,1,165,114,,,inactive
Vav,1,118,79.3,,,inactive
peg,1,164,177,,,inactive
CG15741,1,123,82,,,inactive
